# The supplement of paper PMC10849652
# Protein sequences, listed by entry. Tags and fused reporters are not part of them. Lines headed by an entry give the natural chain unless they say otherwise; changes in a name come on top.
# UniProt Q8NFG4: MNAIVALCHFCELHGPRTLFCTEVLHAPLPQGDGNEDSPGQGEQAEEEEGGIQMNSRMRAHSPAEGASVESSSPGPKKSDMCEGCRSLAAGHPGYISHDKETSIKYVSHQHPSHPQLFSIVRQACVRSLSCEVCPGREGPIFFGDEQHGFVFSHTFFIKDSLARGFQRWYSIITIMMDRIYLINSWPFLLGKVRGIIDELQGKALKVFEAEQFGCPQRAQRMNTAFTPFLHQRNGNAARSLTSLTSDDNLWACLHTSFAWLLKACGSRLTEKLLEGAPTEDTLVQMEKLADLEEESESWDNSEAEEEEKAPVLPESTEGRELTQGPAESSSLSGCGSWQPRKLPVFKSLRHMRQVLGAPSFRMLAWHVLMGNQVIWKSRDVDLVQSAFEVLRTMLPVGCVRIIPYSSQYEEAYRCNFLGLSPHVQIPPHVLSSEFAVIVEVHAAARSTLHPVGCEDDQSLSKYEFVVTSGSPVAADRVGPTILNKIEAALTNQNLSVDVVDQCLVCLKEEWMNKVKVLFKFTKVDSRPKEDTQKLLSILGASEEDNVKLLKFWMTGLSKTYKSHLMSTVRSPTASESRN
# UniProt Q5JUQ0: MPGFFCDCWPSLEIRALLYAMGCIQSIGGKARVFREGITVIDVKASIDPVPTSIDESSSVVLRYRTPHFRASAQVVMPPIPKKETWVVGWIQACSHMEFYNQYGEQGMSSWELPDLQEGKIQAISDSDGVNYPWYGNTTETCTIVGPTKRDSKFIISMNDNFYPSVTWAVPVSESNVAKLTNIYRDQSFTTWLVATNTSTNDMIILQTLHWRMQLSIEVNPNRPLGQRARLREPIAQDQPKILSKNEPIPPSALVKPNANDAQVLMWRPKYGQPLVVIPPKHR
# UniProt Q8NFZ0: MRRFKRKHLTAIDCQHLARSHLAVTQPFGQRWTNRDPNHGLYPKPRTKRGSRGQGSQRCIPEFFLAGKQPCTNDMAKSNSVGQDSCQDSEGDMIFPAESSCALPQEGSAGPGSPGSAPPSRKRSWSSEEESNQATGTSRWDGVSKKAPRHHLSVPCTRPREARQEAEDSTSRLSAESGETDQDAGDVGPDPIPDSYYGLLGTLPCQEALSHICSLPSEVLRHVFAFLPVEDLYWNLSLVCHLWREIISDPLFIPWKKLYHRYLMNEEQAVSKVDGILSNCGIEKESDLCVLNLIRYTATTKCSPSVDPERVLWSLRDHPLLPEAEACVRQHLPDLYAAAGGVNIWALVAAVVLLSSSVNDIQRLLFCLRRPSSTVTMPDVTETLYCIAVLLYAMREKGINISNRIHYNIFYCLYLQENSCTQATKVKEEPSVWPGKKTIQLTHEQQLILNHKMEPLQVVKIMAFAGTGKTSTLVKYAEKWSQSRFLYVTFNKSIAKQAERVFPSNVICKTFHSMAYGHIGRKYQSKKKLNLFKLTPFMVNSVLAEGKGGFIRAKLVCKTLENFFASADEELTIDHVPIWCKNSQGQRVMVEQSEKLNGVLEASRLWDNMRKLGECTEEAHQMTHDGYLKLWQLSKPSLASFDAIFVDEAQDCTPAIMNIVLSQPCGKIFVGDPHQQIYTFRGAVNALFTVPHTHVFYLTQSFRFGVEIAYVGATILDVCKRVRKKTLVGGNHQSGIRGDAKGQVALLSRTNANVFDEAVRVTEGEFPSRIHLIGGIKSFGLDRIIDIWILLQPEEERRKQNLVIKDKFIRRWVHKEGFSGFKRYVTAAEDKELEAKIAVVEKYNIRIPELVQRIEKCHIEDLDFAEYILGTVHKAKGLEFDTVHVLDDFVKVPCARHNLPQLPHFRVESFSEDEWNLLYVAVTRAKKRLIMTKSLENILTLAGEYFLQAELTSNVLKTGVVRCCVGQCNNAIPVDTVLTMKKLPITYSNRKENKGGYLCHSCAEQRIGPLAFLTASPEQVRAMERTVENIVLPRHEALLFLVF
# UniProt Q6P4F2: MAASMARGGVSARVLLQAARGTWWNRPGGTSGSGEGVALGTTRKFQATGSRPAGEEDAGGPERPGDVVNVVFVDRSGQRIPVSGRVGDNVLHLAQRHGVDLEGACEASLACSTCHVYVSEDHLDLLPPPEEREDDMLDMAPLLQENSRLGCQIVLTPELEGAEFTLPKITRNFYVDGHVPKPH
# UniProt Q96ME1: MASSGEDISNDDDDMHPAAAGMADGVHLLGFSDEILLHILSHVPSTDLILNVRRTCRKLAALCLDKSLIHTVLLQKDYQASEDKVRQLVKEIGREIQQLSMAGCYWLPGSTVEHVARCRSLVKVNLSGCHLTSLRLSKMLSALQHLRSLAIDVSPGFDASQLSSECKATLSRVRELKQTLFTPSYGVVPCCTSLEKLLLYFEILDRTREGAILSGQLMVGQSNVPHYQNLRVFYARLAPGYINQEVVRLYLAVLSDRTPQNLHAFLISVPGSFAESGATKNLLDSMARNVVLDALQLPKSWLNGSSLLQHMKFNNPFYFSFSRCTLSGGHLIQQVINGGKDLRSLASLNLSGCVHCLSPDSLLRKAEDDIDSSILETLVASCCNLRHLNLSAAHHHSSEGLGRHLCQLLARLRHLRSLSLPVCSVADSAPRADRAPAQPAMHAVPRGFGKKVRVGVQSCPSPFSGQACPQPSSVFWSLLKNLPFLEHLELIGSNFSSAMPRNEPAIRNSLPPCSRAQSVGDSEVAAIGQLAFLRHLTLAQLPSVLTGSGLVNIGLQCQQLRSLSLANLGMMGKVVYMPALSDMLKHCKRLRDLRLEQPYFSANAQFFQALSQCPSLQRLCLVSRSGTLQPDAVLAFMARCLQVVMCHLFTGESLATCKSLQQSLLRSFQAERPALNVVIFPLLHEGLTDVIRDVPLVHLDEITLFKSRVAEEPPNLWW
# UniProt Q9Y5Y0: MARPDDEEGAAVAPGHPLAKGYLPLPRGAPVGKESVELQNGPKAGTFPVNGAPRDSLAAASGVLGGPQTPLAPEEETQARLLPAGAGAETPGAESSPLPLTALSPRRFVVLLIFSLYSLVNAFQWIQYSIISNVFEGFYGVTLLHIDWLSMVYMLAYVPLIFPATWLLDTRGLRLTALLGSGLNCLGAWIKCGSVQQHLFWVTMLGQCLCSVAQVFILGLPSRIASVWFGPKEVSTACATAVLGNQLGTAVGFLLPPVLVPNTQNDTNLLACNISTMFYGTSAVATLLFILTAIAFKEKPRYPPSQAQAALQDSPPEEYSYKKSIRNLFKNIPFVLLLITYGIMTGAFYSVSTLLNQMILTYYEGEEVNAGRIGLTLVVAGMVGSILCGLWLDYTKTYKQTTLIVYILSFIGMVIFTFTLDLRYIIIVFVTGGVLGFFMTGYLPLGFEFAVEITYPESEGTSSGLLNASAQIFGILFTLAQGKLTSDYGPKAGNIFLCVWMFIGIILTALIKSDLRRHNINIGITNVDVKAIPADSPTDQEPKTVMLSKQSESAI
# UniProt Q96AC1: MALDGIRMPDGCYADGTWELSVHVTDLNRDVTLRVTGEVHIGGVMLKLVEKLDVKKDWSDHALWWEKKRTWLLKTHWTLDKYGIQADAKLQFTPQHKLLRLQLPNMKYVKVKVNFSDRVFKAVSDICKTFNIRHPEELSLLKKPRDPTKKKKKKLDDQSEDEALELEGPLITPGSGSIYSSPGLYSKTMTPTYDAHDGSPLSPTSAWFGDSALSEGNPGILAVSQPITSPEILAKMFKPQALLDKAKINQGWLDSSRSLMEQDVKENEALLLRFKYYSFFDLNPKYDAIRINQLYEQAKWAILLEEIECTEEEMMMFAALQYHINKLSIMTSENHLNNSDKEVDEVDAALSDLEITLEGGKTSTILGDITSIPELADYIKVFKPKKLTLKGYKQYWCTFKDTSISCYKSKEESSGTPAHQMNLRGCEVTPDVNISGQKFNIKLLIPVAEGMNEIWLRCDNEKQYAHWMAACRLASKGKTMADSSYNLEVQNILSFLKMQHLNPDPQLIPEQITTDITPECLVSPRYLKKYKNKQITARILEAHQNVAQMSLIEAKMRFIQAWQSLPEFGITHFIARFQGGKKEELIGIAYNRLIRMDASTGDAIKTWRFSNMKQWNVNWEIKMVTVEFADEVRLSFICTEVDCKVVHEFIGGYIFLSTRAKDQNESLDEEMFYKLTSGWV
# UniProt Q9Y324: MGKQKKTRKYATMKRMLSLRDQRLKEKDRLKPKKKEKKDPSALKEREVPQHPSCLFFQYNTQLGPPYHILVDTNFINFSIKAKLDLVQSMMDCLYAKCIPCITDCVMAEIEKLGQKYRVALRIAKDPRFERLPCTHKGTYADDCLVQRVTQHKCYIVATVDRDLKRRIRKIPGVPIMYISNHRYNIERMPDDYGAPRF
# UniProt A2RU67: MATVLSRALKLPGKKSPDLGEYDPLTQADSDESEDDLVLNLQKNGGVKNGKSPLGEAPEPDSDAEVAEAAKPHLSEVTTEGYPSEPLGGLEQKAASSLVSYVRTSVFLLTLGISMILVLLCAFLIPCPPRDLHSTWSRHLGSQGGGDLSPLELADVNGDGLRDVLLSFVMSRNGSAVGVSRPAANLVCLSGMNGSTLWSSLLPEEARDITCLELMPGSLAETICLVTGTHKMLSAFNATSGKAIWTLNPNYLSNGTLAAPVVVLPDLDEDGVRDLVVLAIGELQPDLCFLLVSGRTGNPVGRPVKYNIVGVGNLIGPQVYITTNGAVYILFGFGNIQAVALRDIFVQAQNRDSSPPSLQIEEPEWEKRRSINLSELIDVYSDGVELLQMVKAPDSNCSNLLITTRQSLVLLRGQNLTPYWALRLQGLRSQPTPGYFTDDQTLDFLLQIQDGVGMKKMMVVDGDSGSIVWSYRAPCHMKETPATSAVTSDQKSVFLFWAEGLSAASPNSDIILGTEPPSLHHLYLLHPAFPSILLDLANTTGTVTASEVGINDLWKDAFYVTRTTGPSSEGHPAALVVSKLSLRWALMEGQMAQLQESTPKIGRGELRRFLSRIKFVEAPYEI
# UniProt Q00688: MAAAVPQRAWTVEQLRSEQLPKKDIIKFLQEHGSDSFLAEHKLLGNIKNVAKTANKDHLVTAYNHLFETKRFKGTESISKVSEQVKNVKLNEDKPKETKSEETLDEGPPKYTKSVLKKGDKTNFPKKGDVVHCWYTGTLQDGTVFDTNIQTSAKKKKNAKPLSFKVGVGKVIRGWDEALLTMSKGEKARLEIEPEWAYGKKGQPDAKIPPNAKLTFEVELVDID
# UniProt P22830: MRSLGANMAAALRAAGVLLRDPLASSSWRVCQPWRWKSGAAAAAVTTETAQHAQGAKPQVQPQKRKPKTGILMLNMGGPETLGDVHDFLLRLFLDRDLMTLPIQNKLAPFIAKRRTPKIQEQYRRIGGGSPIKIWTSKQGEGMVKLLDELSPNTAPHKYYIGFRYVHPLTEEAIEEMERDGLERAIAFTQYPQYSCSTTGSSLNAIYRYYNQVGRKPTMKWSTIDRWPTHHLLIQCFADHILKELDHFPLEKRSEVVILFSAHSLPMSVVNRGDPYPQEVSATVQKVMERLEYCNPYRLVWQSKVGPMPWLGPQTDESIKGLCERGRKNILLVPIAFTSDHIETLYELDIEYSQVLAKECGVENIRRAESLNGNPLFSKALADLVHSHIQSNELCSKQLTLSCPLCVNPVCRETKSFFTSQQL
# UniProt Q53R41: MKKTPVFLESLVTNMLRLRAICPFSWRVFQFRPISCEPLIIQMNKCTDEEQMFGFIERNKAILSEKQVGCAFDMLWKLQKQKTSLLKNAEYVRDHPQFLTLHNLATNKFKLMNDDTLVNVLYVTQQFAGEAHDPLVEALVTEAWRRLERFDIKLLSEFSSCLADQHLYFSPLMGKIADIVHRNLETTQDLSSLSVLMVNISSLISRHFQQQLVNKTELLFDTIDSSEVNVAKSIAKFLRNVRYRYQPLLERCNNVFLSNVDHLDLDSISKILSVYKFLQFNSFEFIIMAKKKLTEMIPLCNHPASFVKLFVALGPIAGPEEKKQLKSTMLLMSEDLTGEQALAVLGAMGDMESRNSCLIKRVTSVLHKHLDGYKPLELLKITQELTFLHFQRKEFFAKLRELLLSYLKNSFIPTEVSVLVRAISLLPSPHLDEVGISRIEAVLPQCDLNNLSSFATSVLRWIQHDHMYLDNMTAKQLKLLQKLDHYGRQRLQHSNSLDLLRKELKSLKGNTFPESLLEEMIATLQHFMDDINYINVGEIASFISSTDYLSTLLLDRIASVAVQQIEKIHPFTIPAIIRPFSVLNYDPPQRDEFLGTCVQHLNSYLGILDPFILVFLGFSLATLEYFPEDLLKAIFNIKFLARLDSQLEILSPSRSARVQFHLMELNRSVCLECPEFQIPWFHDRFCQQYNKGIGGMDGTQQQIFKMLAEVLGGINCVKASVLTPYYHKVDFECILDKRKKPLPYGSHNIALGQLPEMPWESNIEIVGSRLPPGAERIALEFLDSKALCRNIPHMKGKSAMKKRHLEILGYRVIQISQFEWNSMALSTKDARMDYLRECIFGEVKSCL
# UniProt Q96GI7: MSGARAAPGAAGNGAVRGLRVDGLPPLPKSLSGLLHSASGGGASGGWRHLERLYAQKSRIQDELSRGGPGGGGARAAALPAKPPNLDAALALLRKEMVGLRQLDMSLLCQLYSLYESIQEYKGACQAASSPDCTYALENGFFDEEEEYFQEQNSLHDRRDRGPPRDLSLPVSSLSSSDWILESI
# This is one part of the list.
# Legend:
# Assay in all cases: log2 fold change, soluble protein after heating vs DMSO (PISA); higher = thermal stabilisation; K562 cells, 10 uM, 30 min; active = over 0.2 and 3.5 SD of the protein, either way, in both replicates (recomputed)
# [1] = compound: COC1=CC=C(C=C1)CN2C=CC3=C2C=C(C=C3)C(=O)NO
# Procedure, shortened: (§1)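 K562 cells at 2×10^6 cells/mL were treated with 10 μM compound for 30 min. Aliquots were heated for 3 min across 48°C-58°C, pooled, and extracted in PBS with 0.5% NP-40 at 4°C; soluble protein was the supernatant after 21,000xg for 90 min. Soluble protein was quantified by TMTpro 16plex LC-MS/MS with channel sums equalised, and reported as log2 fold change in thermal stability against DMSO controls, with values from duplicates.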
# filanesib = compound: CON(C)C(=O)N1N=C(c2cc(F)ccc2F)S[C@@]1(CCCN)c1ccccc1 [filanesib]
# Procedure, shortened: as §1
# zotarolimus = compound: CO[C@H]1C[C@@H]2CC[C@@H](C)[C@@](O)(O2)C(=O)C(=O)N2CCCC[C@H]2C(=O)O[C@H]([C@H](C)C[C@@H]2CC[C@H](n3cnnn3)[C@H](OC)C2)CC(=O)[C@H](C)/C=C(\C)[C@@H](O)[C@@H](OC)C(=O)[C@H](C)C[C@H](C)/C=C/C=C/C=C/1C [zotarolimus]
# Procedure, shortened: as §1
# idasanutlin = compound: COc1cc(C(=O)O)ccc1NC(=O)[C@@H]1N[C@@H](CC(C)(C)C)[C@](C#N)(c2ccc(Cl)cc2F)[C@H]1c1cccc(Cl)c1F [idasanutlin]
# Procedure, shortened: as §1
# alisertib = compound: COc1cc(Nc2ncc3c(n2)-c2ccc(Cl)cc2C(c2c(F)cccc2OC)=NC3)ccc1C(=O)O [alisertib]
# Procedure, shortened: as §1
# [2] = compound: COc1cc2nc(-c3cc(F)ccc3O)nc(N[C@@H]3CNC[C@H]3C(C)(C)O)c2cc1OC
# Procedure, shortened: as §1
# gefitinib = compound: COc1cc2ncnc(Nc3ccc(F)c(Cl)c3)c2cc1OCCCN1CCOCC1 [gefitinib]
# Procedure, shortened: as §1
# [3] = compound: COc1cccc2cc(-c3nc([C@H]4CC[C@H](C(=O)O)CC4)n4ncnc(N)c34)[nH]c12
# Procedure, shortened: as §1
# lapatinib = compound: CS(=O)(=O)CCNCc1ccc(-c2ccc3ncnc(Nc4ccc(OCc5cccc(F)c5)c(Cl)c4)c3c2)o1 [lapatinib]
# Procedure, shortened: as §1
# pictilisib = compound: CS(=O)(=O)N1CCN(Cc2cc3nc(-c4cccc5[nH]ncc45)nc(N4CCOCC4)c3s2)CC1 [pictilisib]
# Procedure, shortened: as §1
Target,log2 fold change [1],log2 fold change (filanesib),log2 fold change (zotarolimus),log2 fold change (idasanutlin),log2 fold change (alisertib),log2 fold change [2],log2 fold change (gefitinib),log2 fold change [3],log2 fold change (lapatinib),log2 fold change (pictilisib)
FHOD1 (UniProt Q9Y613),inactive: -0.044,inactive: 0.084,inactive: 0.095,inactive: 0.127,inactive: -0.161,inactive: 0.186,inactive: -0.005,inactive: -0.253,inactive: 0.014,inactive: 0.01
FBRS (UniProt J3KNZ9),inactive: -0.397,inactive: 0.391,inactive: -0.101,inactive: 0.27,,inactive: 0.242,inactive: -0.076,,inactive: -0.188,inactive: -0.068
FLCN (UniProt Q8NFG4),inactive: 0.048,inactive: 0.049,inactive: 0.133,inactive: 0.026,inactive: -0.032,,inactive: -0.022,inactive: 0.093,,inactive: -0.208
FAM49B (UniProt Q9NUQ9),inactive: -0.02,inactive: -0.071,inactive: 0.005,inactive: -0.082,inactive: -0.046,inactive: -0.014,inactive: -0.006,inactive: 0.059,inactive: 0.025,inactive: 0.013
FAM78A (UniProt Q5JUQ0),inactive: -0.004,inactive: 0.043,inactive: -0.029,inactive: 0.012,,inactive: 0.043,inactive: -0.018,,inactive: -0.119,inactive: 0.176
FBH1 isoform 2 (UniProt Q8NFZ0),inactive: 0.106,inactive: 0.095,,inactive: 0.081,inactive: -0.087,inactive: -0.002,inactive: -0.063,inactive: 0.281,inactive: 0.038,inactive: 0.012
FDX2 (UniProt Q6P4F2),inactive: -0.051,inactive: -0.022,inactive: 0.003,inactive: 0.073,inactive: -0.053,inactive: -0.063,inactive: 0.017,inactive: 0.014,inactive: -0.049,inactive: -0.146
FARS2 (UniProt O95363),inactive: -0.171,inactive: -0.122,inactive: -0.049,inactive: -0.076,inactive: 0.137,inactive: 0.033,inactive: -0.114,inactive: 0.113,inactive: -0.061,inactive: 0.071
FBXL18 isoform 4 (UniProt Q96ME1),inactive: 0.101,inactive: -0.064,inactive: -0.031,inactive: -0.108,inactive: 0.024,inactive: 0.014,inactive: -0.025,inactive: 0.026,inactive: 0.018,inactive: 0.074
FLVCR1 (UniProt Q9Y5Y0),inactive: -0.025,inactive: 0.093,inactive: -0.161,inactive: -0.028,inactive: -0.008,inactive: 0.019,inactive: -0.022,inactive: 0.037,inactive: -0.096,inactive: 0.117
FERMT2 isoform 3 (UniProt Q96AC1),inactive: -0.761,inactive: 0.171,inactive: 0.048,,inactive: 0.187,inactive: 0.116,inactive: -0.032,inactive: -0.206,inactive: 0.062,inactive: -0.203
FHAD1 isoform 3 (UniProt B1AJZ9),inactive: -0.01,,inactive: -0.417,inactive: -0.232,,inactive: -0.13,,,inactive: 0.025,inactive: -0.099
FCF1 (UniProt Q9Y324),inactive: -0.026,inactive: 0.405,,,inactive: -0.272,inactive: 0.1,,inactive: -0.299,inactive: 0.157,inactive: -0.262
FIBP (UniProt O43427),inactive: 0.083,inactive: -0.051,inactive: -0.047,inactive: 0.03,inactive: 0.016,inactive: 0.042,,inactive: -0.084,inactive: 0.008,inactive: 0.185
FAM98B (UniProt Q52LJ0),inactive: -0.013,inactive: 0.256,inactive: 0.128,inactive: -0.037,inactive: 0.071,inactive: 0.006,inactive: -0.02,inactive: -0.174,inactive: -0.029,inactive: -0.052
FIZ1 (UniProt Q96SL8),inactive: -0.081,inactive: 0.078,inactive: 0.048,,inactive: 0.117,,inactive: 0.001,inactive: -0.108,,inactive: 0.016
FAU (UniProt P62861),inactive: -0.142,inactive: 0.4,inactive: -0.044,inactive: 0.11,inactive: -0.18,inactive: -0.065,inactive: 0.029,inactive: -0.218,inactive: 0.123,inactive: -0.188
FAM234B (UniProt A2RU67),inactive: -0.033,inactive: 0.018,inactive: -0.055,inactive: 0.16,,inactive: -0.087,,,inactive: 0.335,
FGFR1OP2 (UniProt Q9NVK5),inactive: -0.214,,inactive: 0.06,inactive: 0.052,inactive: -0.003,,inactive: 0.076,inactive: -0.015,,inactive: -0.054
FKBP3 (UniProt Q00688),inactive: 0.219,inactive: -0.04,active: 0.354,inactive: -0.015,inactive: -0.052,inactive: 0.047,inactive: -0.023,inactive: 0,inactive: -0.029,inactive: 0.004
FECH isoform 2 (UniProt P22830),inactive: 0.159,inactive: -0.188,inactive: 0.082,inactive: -0.127,inactive: -0.185,inactive: 0.363,inactive: 0.153,inactive: 0.062,inactive: 0.269,inactive: 0.396
FBXW11 (UniProt Q9UKB1),inactive: -0.049,,inactive: 0.019,inactive: -0.2,,inactive: -0.023,,,inactive: -0.034,inactive: 0.005
FAT3 isoform 1 (UniProt Q8TDW7),inactive: 0.164,inactive: 0.068,,,inactive: 0,inactive: 0.124,inactive: 0.087,inactive: 0.332,inactive: 0.002,
FASTKD1 (UniProt Q53R41),inactive: -0.037,inactive: -0.011,inactive: -0.192,inactive: -0.028,,,inactive: 0.473,,,inactive: 0.127
FAM89A (UniProt Q96GI7),inactive: 0.062,inactive: 0.184,,,inactive: -0.16,,inactive: 0.125,inactive: 0.101,,
FLNA (UniProt P21333),inactive: 0.042,inactive: 0.026,inactive: 0.043,inactive: -0.066,inactive: 0.036,inactive: 0.039,inactive: 0.03,inactive: -0.095,inactive: -0.049,inactive: 0.031
FNBP1L (UniProt Q5T0N5),inactive: -0.054,inactive: 0.025,inactive: -0.038,inactive: 0.074,inactive: 0.134,inactive: 0.082,inactive: -0.024,inactive: -0.007,inactive: -0.02,inactive: 0.086
FGGY isoform 3 (UniProt Q96C11),inactive: 0.055,,inactive: -0.111,inactive: -0.069,inactive: -0.148,inactive: 0.043,,inactive: 0.02,inactive: -0.124,inactive: -0.182

# Looked up above.
# log2 fold change [1] with FARS2 (UniProt O95363) reads inactive: -0.171
# log2 fold change (lapatinib) with FIBP (UniProt O43427) reads inactive: 0.008
